# PubChem BioAssay AID504764 | Drosophila RNAi Screening Center | 2011
# Assay: 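Knock-downs that raise or lower a Notch target reporter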 (primary screen)
# Cells: Drosophila Kc167 cells
# Reagents: long dsRNA against Drosophila genes
# Timing: about 5 days (4 days dsRNA, then 24 h after transfection)
# Conditions: transfection of constitutively active membrane-tethered Notch lacking the extracellular domain, read 24 h later
# Measured: 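Firefly luciferase from an E(spl)m3 reporter with active Notch, plus control-promoter and uninduced reporter wells for normalisation; unnormalised counts, duplicate wells a and b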
# Reading the numbers: induced reporter light, run 1, well a and induced reporter light, run 1, well b: higher = more light from the Notch target reporter with active Notch; control promoter light, run 1, well a and control promoter light, run 1, well b: higher = more light from the viral control promoter (cell number, transfection, viability); uninduced reporter light, run 1, well a: higher = more light from the Notch target reporter without active Notch
# Active means: 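Wells with low control signal or poorly matching duplicates excluded; duplicates averaged; per source plate, z beyond ±2 for induced/control log2 ratio or beyond ±1.8 for induced/uninduced marks a hit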
# Meaning of the calls: active = modifier hit (raised or lowered Notch signal); inactive = not a hit
# In all, the deposit lists about 22,000 reagents; shown is an unselected part of those that have a named target and a result. Over the whole deposit, 403 (1.9%) are marked active. 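Unnormalised raw counts per well; ratio z-scores behind the hit calls and whether each hit raises or lowers signal are not deposited.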 A plus sign joins genes that one reagent is predicted to hit. Reagent sequences are not shown. The record does not give: the amount of reagent.
gene knocked down,DRSC id,"induced reporter light, run 1, well a","induced reporter light, run 1, well b","control promoter light, run 1, well a","control promoter light, run 1, well b","uninduced reporter light, run 1, well a",activity call
VhaM9.7-d,DRSC15028,1.10e5,89680,97100,1.06e5,8075,inactive
Sirt2,DRSC15714,1.85e5,1.55e5,1.64e5,1.72e5,11470,inactive
mus201 + Chrac-14,DRSC03568,1.48e5,1.84e5,1.06e5,1.29e5,22950,inactive
mus201 + Chrac-14,DRSC03575,1.62e5,1.77e5,1.23e5,1.63e5,22450,inactive
Usp1,DRSC14155,2.26e5,2.19e5,2.52e5,3.11e5,15650,inactive
CG13557,DRSC04195,1.78e5,1.35e5,1.70e5,1.49e5,9345,inactive
Cyp12a5,DRSC16621,1.94e5,1.58e5,1.72e5,1.81e5,13438,inactive
Qsox3,DRSC16096,2.15e5,1.67e5,1.96e5,1.89e5,13800,inactive
Fpgs1,DRSC19857,1.19e5,1.08e5,1.75e5,1.87e5,7492,inactive
aspr,DRSC20689,85985,1.11e5,1.00e5,1.07e5,9732,inactive
aspr,DRSC20690,94650,1.07e5,1.44e5,1.52e5,13015,inactive

Continued; the last 2 above are carried over.
gene knocked down,DRSC id,"induced reporter light, run 1, well a","induced reporter light, run 1, well b","control promoter light, run 1, well a","control promoter light, run 1, well b","uninduced reporter light, run 1, well a",activity call
aspr,DRSC20689,85985,1.11e5,1.00e5,1.07e5,9732,inactive
aspr,DRSC20690,94650,1.07e5,1.44e5,1.52e5,13015,inactive
CG9837,DRSC16573,64830,57405,45230,57075,4900,inactive
CG30419,DRSC04208,1.89e5,1.68e5,2.20e5,2.04e5,15765,inactive
CG30419,DRSC04209,1.72e5,1.26e5,1.30e5,1.27e5,9635,inactive
CG30419,DRSC22519,,,,,,inactive
CG34002,DRSC09512,1.78e5,1.50e5,2.19e5,2.36e5,17305,inactive
CG34002,DRSC11953,1.73e5,2.05e5,3.09e5,2.70e5,17450,inactive
CG7824,DRSC16321,1.43e5,1.48e5,1.88e5,1.69e5,12950,inactive
CG32645,DRSC19683,1.28e5,1.32e5,1.89e5,2.03e5,9305,inactive
CG32645,DRSC19889,1.26e5,1.16e5,2.60e5,2.34e5,8265,inactive
